{"source": "PubChem BioAssay AID743454 | Peter MacCallum Cancer Centre – 2014", "test": "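Search for knock-downs that restore vorinostat killing in resistant colon cancer cells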 (primary screen)", "system": "human HCT116-VR colon cancer cells, selected for vorinostat resistance", "reagent": "siRNA pool against human genes, 40 nM siRNA pool", "time to read-out": "vorinostat for 24 h, read-out about 72 h after transfection", "challenge": "vorinostat at 2.5 µM final", "measurement": "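Two measures, CellTiter-Fluor viability and luminescent caspase 3/7 activity, each as fold change against same-plate mock wells, mean of duplicates, then screen-wide robust z-score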", "reading the numbers": "viability robust z-score: higher = more viable cells than screen typical; caspase robust z-score: higher = more caspase 3/7 activity than screen typical", "active means": "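Hits are knock-downs in viability class RV1/RV2 or caspase class CA1/CA2, excluding ones that killed cells in the no-drug cell-count arm; hits then retested with single siRNAs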", "note": "Here is a random part of about 18,000 reagents. 450 of all reagents (2.5%) count as active. 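Single biological run; no consistent viability z cut-off exists, so the class columns, not z-scores, define the calls.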"}
{"Target gene": "CD28 (CD28 molecule)", "viability hit class": "no change", "caspase hit class": "no change", "viability robust z-score": 0.72, "caspase robust z-score": -0.62, "call": "inactive"}
{"Target gene": "CIBAR2 (CBY1 interacting BAR domain containing 2)", "viability hit class": "no change", "caspase hit class": "no change", "viability robust z-score": 0.32, "caspase robust z-score": 0.68, "call": "inactive"}
{"Target gene": "UBLCP1 (ubiquitin like domain containing CTD phosphatase 1)", "viability hit class": "no change", "caspase hit class": "no change", "viability robust z-score": 0.76, "caspase robust z-score": 0.28, "call": "inactive"}
{"Target gene": "TYW1 (tRNA-yW synthesizing protein 1 homolog)", "viability hit class": "no change", "caspase hit class": "no change", "viability robust z-score": 0.44, "caspase robust z-score": 1.83, "call": "inactive"}
{"Target gene": "RAD54L2 (RAD54 like 2)", "viability hit class": "no change", "caspase hit class": "no change", "viability robust z-score": -0.86, "caspase robust z-score": -1.27, "call": "inactive"}
{"Target gene": "HSD17B14 (hydroxysteroid 17-beta dehydrogenase 14)", "viability hit class": "no change", "caspase hit class": "no change", "viability robust z-score": -0.68, "caspase robust z-score": 4.04, "call": "inactive"}
{"Target gene": "NDUFAF4 (NADH:ubiquinone oxidoreductase complex assembly factor 4)", "viability hit class": "no change", "caspase hit class": "no change", "viability robust z-score": 1.02, "caspase robust z-score": 0.2, "call": "inactive"}
{"Target gene": "RALGPS1 (Ral GEF with PH domain and SH3 binding motif 1)", "viability hit class": "no change", "caspase hit class": "no change", "viability robust z-score": 1.02, "caspase robust z-score": -0.66, "call": "inactive"}
{"Target gene": "ABCA12 (ATP binding cassette subfamily A member 12)", "viability hit class": "no change", "caspase hit class": "no change", "viability robust z-score": 0.04, "caspase robust z-score": -0.64, "call": "inactive"}
{"Target gene": "LRP1B (LDL receptor related protein 1B)", "viability hit class": "no change", "caspase hit class": "no change", "viability robust z-score": 0.67, "caspase robust z-score": -0.92, "call": "inactive"}
{"Target gene": "WNT7B (Wnt family member 7B)", "viability hit class": "no change", "caspase hit class": "no change", "viability robust z-score": -1.8, "caspase robust z-score": 4.13, "call": "inactive"}
{"Target gene": "IDH1 (isocitrate dehydrogenase (NADP(+)) 1)", "viability hit class": "no change", "caspase hit class": "no change", "viability robust z-score": 0.4, "caspase robust z-score": 2.74, "call": "inactive"}
{"Target gene": "NTHL1 (nth like DNA glycosylase 1)", "viability hit class": "no change", "caspase hit class": "no change", "viability robust z-score": 0.1, "caspase robust z-score": 0.94, "call": "inactive"}
{"Target gene": "DEFB108B (defensin beta 108B)", "viability hit class": "no change", "caspase hit class": "no change", "viability robust z-score": -0.7, "caspase robust z-score": 0.5, "call": "inactive"}
{"Target gene": "AP1G2 (adaptor related protein complex 1 subunit gamma 2)", "viability hit class": "no change", "caspase hit class": "no change", "viability robust z-score": -0.48, "caspase robust z-score": -0.1, "call": "inactive"}
{"Target gene": "MKNK1 (MAPK interacting serine/threonine kinase 1)", "viability hit class": "no change", "caspase hit class": "no change", "viability robust z-score": 0.89, "caspase robust z-score": 1.22, "call": "inactive"}
{"Target gene": "TRMT44 (tRNA methyltransferase 44 homolog)", "viability hit class": "no change", "caspase hit class": "no change", "viability robust z-score": -0.34, "caspase robust z-score": -0.4, "call": "inactive"}
{"Target gene": "KCND3 (potassium voltage-gated channel subfamily D member 3)", "viability hit class": "no change", "caspase hit class": "no change", "viability robust z-score": -0.52, "caspase robust z-score": -0.14, "call": "inactive"}
{"Target gene": "ASPN (asporin)", "viability hit class": "no change", "caspase hit class": "no change", "viability robust z-score": 0.84, "caspase robust z-score": -0.34, "call": "inactive"}
{"Target gene": "COL6A5 (collagen type VI alpha 5 chain)", "viability hit class": "no change", "caspase hit class": "no change", "viability robust z-score": 0.05, "caspase robust z-score": -0.84, "call": "inactive"}
{"Target gene": "THAP4 (THAP domain containing 4)", "viability hit class": "no change", "caspase hit class": "no change", "viability robust z-score": -0.64, "caspase robust z-score": -1.21, "call": "inactive"}

3 entries from above, sorted by “viability robust z-score”, low to high.
{"Target gene": "WNT7B (Wnt family member 7B)", "viability hit class": "no change", "caspase hit class": "no change", "viability robust z-score": -1.8, "caspase robust z-score": 4.13, "call": "inactive"}
{"Target gene": "NTHL1 (nth like DNA glycosylase 1)", "viability hit class": "no change", "caspase hit class": "no change", "viability robust z-score": 0.1, "caspase robust z-score": 0.94, "call": "inactive"}
{"Target gene": "IDH1 (isocitrate dehydrogenase (NADP(+)) 1)", "viability hit class": "no change", "caspase hit class": "no change", "viability robust z-score": 0.4, "caspase robust z-score": 2.74, "call": "inactive"}
